Experimental data: PubChem BioAssay AID1508600 (Functional Genomics Laboratory (NCATS/FGL), 2020)
The campaign covered roughly 53,000 sequences. About 3,700 (7%) were called active.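 How the source made its calls: active means gene knockdowns whose robust z-score for IL-1 alpha signal is at least 2 or at most -2, so actives lie on both sides; inactive means the rest.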 This is one part of the list.

Test: Components of the Cytosolic LPS Sensing Pathway: Gene Identification via Genome-wide siRNA Screen;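 further: robust z of the log signal after scaling to non-targeting control siRNA wells of the plate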
Details: RAW264.7 macrophages, IL-1a HTRF, actives lie on both sides, screened at 100 nM (by protocol), cells primed 5 h with Pam3CSK4 first
Method in brief: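 Using IL-1a HTRF as read-out, the screen measured release from RAW264.7 cells after 48h siRNA knockdown (100 nM), 5 h Pam3CSK4 priming and 24 h cytosolic LipidA. Values were expressed relative to negative-control wells as robust z-scores.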

z-score, active:
GGAAGACUGGUACACAUAATT against Tmem43 -2.32
GGCUCCAAAUCAAACUCUATT against Eif4e3 2.19
GCUGGUAAACAUAGGUGGCTT against C1qtnf4 2.18
GGCAUUUCAACUGGACCCATT against Lamb1 -2
CCCGGAGCUUGAAUUACUGTT against Usp7 2.36
GGAUCUUGAUCCACAUCUCTT against Padi6 -2.47
GGAAUAUCCGUAAUAACUATT against Grin2b 2.82

z-score, inactive:
GGGUGUACCUUAUGUAUUATT against Prpf4 1.03
GGAAACUGUUGAAUCUUGUTT against Smad5 1.42
CCUACUUGAGGUUCAUCGUTT against Zmynd11 0.591
GCAUGAUUUAGAUCGAGUATT against Uqcrfs1 -0.268
CCAGUUUGGUAAUCAUGAATT against Cyb561d2 -0.244
CCUGGCCGUCAUAGAUCUCTT against Olfr464 -0.0808
GGGAAAUCUUCAUUUCUUUTT against Nsd1 0.153
GCUAGCAACAUCUUGGGCATT against Cntn2 0.849
GGAUGAUCACAAAGGUAUATT against 4632404H12Rik 0.0665
GGUUCGACGAAGAUCAGAGTT against Akap1 -0.634
GCAAAAUAGAUCAGUAUUCTT against Gabra6 0.516
GGGUAUGCUCAUCAUGCUGTT against Mfsd7a -1.69
GGAGAUGUGUCCUUGACGATT against Havcr1 -0.0613
GCUGCAUUUUUUGGCAGAGTT against Dennd2d -1.42
CCGAAGCAUGAAGAAUCUATT against Tubd1 0.544
GGGUGAGAUGAAAUGCAUCTT against Efemp2 0.264
GGAUGAAAAUCAAAGAAGUTT against Sfrp1 -0.315
CCAGGAUACGGUGUGGUAUTT against Prss21 -0.355
GGUGUUGGCUCACAACCAATT against Fam234b -1.67
GGAAGAAUGGUUAAAGGGATT against Dcun1d5 0.609
GGCAGCUAUUGCUCUGGAATT against 5730596B20Rik -0.293
GGUAGAUAUCCUUGAGUACTT against Mettl7a1 0.81
CCAUUAAUGCAGACACUACTT against Amy2a5 -0.909
GCAGAAAGAAUGCAGAUAATT against Zfp281 0.777
GGAUACUCUGGAGAAGUGUTT against Fblim1 -0.785
GUGUCUUGGGAAACAACUUTT against Gchfr 1.67
GGAGUAUGAAUUUGUGACUTT against Arhgdig -0.526
GGAAGUAAACCUUCAUGAATT against Cd40lg 0.911
GGUUCUCAGUCAUAUUUACTT against Fbxl12 1.08
CCAGUUUAUUGAGAAUAAGTT against Rab4b 0.531
GCAUUGUGGAACAAACCUATT against Gabpa 0.929
GGCCACCUUGUGUUUAUCUTT against Lrg1 -1.57
GGGAUACUGGUGCUUAACUTT against Abhd1 -0.189
CGAAAGGGAGAAAUUUGCUTT against Cemip 0.0398
GGAGAGUAAAUACCGACAGTT against Homer2 -0.133
GGAACGAGAAGAAAUUUAGTT against Pbld2 -1.1
GGUUCCUAAACAUACUUGUTT against Swi5 0.478
GGAAGUAUUUGAUCAUGGATT against Smarca5 -0.465
CGAAGUUCAUUCCUGUCUATT against Myf6 -0.664
GGUGAAGUGGAAGAUUCGGTT against Ror2 -1.05
GGACAUCAAGCCCUUACCATT against Rxrg -1.96
GGAGACCAAAUGCUAGACGTT against Fam32a -1.67
GCCUGUGCAAAAAGUAGGGTT against Grasp -0.0182
GGGAUGAGAAAGAUGUGCCTT against Cracd 0.051
GGUACCACCAUGCUAUGGUTT against Krtap19-9b 0.646
GCAGAAAAUACCCAGUUUGTT against Hmox2 -0.841
GGCUGAGUGCUUCUAUCGUTT against Fam135b -0.993
GGAAAAUCAACAGCAUCAATT against Olfr661 -0.642
GGUGUGUGAACCAUGUGUGTT against Olfr157 -1.03
GGAAGUCCAUCUCUUUUGCTT against Olfr56 0.213
GCAAUCCUAUUUGAUGACUTT against Ninj2 -1.28
GCAUCGAAGAGUACCUUCATT against Zeb2 -0.435
GGAUUUCAACUUGUUCUAUTT against Mmp1b 1.72
CCACAGAGCUGGUGUAAAGTT against Tlx2 -0.347
GGAUACAGUUAAGAGAUAUTT against Xpr1 -1.34
GCUUGAUUUGACCACGCUGTT against Tmem59l -0.0828
GGCCUAUCUUGUUUAUUUGTT against Tgtp1 -0.316
GGAAGAAAAUGAGAGCACUTT against Mucl1 -0.894
CCAUUACGAAUUUUGCUUUTT against Serpina11 0.546
GGAUCGCUUAGUCUCAUGATT against Inip -0.493
GGAGUUCCUGAGACAGUACTT against Mcm5 0.112
GGAAAACUACCUCUUUUGATT against Cbll1 1.4
CCAGAGUUCUGGGAUUCCATT against Cyp2c66 -0.948
GGAUCAGACCAAACUUCAATT against Glrb 1.38
GGCAUAGUAAUCGAGUACUTT against Dzip1l -0.389
GGAUCCUGUCAAAGAUAAUTT against Zfp592 -0.294
CGCAUUAUGAAUGACUACUTT against Svs1 -0.0778
GGUCUUUGGACCCUGUUUGTT against Tor1b 1.11
GGACACACAUUCUUACAAATT against Plpp1 -1.17
GGAAGUUGAAAGACUUACGTT against Tnip2 -0.185
CGGGAUACUUUAAAGAACATT against Sem1 -1.07
GCACAGUAACCUAAAAUACTT against Tanc2 -1.48
CCCAAGCGGUAUCAUAUUUTT against Swt1 0.168
GGUGGAAAAGCCUUACAGATT against Sry 0.731
GGUUGUUUUUUGAUACUGATT against Pramel12 -1.32
CCGCUCACAACUUCUACAGTT against Prickle3 0.153
GGACUGAAGAUCAUAUUCATT against Prl3b1 0.15
GGAAUCUCCGAAGCAUGAATT against Sorbs1 0.696
GGCCAACAAGCAGGUUUUUTT against Rmc1 1.89
UGCACUGAGGAAUAAGGACTT against Olfr111 0.225
GGUGUAAUUGCCUUGAAGGTT against Il25 0.868
GGAAAUCUAAUGCACUUACTT against Gsdma3 0.138
CCCUAUCCUAAAAGCAGACTT against E430018J23Rik -0.184
GGCCAUCAGUGUGGAAUGUTT against BC004004 -0.19
GGUAAAAUCACGCAGUAAATT against Ppp1r3a -0.56
GGAGAUUUUGAUGAGCAGATT against Gpatch3 -0.885
GGAAAAGGCCAAAAGCUGUTT against Rnd1 -0.958
GGGCUGUGUAUCAAAACAUTT against Sft2d1 -1.96
GGCGGACGUGAAGAACUUGTT against Letmd1 1.28
GCUCCAGGUCCUUAGAAUATT against Me1 0.255
GGAAAAGAUAACUCAGACATT against Hrg 0.727
GCUUUUGUGACUCUGCUGATT against Raver1 -1.41
GGUAGAAGCUGUCUUCAGATT against Mrps30 -0.311
GGAGGAAGAUCUUUAAUGUTT against Gm4793 0.69
GGAACACACUUUUACCAUUTT against Clstn3 0.574
GCUCAACUUUCGAAUGAACTT against Tmem100 0.479
CCACUAGCUAUCUCAUACCTT against Tktl1 -0.0025
GGUCAUGUCCAUCCCAAAGTT against Ficd 1.15
GGAACAGACAUAUAAGCAUTT against Blvra 0.463
GCCUGACGAAGGUUUCUAUTT against Neo1 -0.114

4 entries picked at random from those above:
z-score, inactive:
GGAAAAGGCCAAAAGCUGUTT against Rnd1 -0.958
GGUAGAAGCUGUCUUCAGATT against Mrps30 -0.311
GGGAUACUGGUGCUUAACUTT against Abhd1 -0.189
GGUAAAAUCACGCAGUAAATT against Ppp1r3a -0.56

Not a retest: an excerpt of the list.
z-score, inactive:
GGUACCACCAUGCUAUGGUTT against Krtap19-9b 0.646
GCAGAAAAUACCCAGUUUGTT against Hmox2 -0.841
